No constants are given. Whether binding was seen depends on the method and setting. In cells and extracts the contact can be indirect. A yes stands for co-enrichment or nearness to the bait. Other partners may have been found.
Columns and labels:
[1] = target: T1, Rsph16 (mouse) (UniProt Q80Y75); test: affinity purification with mass spectrometry
T1 sequence: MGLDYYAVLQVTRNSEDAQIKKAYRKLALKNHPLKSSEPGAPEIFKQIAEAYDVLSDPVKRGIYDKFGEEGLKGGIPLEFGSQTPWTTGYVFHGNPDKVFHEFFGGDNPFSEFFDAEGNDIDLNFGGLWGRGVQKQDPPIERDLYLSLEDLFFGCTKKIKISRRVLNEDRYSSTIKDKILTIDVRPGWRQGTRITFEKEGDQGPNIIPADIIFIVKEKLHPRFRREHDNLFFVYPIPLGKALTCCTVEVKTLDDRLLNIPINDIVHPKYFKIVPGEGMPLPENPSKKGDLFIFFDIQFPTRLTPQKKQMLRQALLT

[2] = target: T2, Rsph1 (mouse) (UniProt Q8VIG3); test: affinity purification with mass spectrometry
T2 sequence: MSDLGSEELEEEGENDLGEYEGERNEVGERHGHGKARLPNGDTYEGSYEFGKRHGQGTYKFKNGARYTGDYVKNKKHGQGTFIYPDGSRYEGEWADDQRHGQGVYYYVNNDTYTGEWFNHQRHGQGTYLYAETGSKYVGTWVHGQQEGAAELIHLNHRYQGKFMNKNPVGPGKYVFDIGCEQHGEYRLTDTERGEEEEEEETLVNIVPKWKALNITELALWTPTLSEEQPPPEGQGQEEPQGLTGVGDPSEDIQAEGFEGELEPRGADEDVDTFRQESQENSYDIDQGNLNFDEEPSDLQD

- binding [1]: binds
- binding [2]: binds
B1: Rsph10b (protein, UniProt E9PYQ0 1-876)
chain: MVKEKKKADKKGDKSARSPSSISDNPEASKQDSNASKQEVAPSAVVPVVETPLKQAPKRDSVQMEQSEEETQYEEPILTKLIVESYEGEKVRGLYEGEGFAVFQGGNTYHGMFSEGLMHGQGTYIWADGLKYEGDFVKNIPMNHGVYTWPDGSTYEGEVTNGMRNGFGMFKCGTQPVSYIGHWCHGKRHGKGSIYYNQEGTSWYEGDWVYNIKKGWGIRCYKSGNIYEGQWENNMRHGEGRMRWLTTNEEYTGHWEKGIQNGFGTHTWFLKRIPNSQYPLRNEYIGEFVNGFRHGQGKFYYASGAMYEGEWASNKKQGRGRMTFKNGHVYEGLFSNDHIAQFFETEMDYSQSLDRWSDASQRSRQPRGSSVSAVREPETLRKLDGSESRSVLGTSIELDLTLLLDMYPEESQEEEKKQVEYAVLRNITELRRIYCFYSGLGCDHSLDNTFLMTKLHFWRFLKDCRFHHHNITLADMDRVLSVYNGIPIEEIHSPFRTILLRTFLNYLLQLAYYIHHKEFQNRSPSLFLCFTKLMSENIHPHACQVKGHLFSEQQRTLYSMNYIDKCWEIYTAYCRPNEAPPYELTMKMRYFLWMLKDFRMINKDLTATKFMTVIAEDNPFVYDGTDSNFELELVFLEFFEALLCFSLCCMFDQMTRSYLKVPYDDITTNRYGSTQTILNQSIHRSPSAITSHDSEVHFSSTKSSLDKIGALPDGKIRQSEPKLKKSLSEDKVSKMNFKTQGRGLVFMSPQGEKYEKPKDEQKEKLNIWVNNLYVFFVSVLFSAYKREEMLKEKVKENQLQEAELAQQRQIENEELEARLNILREEEARKQDFELDITVLKEPSEIPASQPLTPSPPKEDLASIQTSKASPGKKKKK
